Measurements from PMC3408500, “Development of a High-Throughput Assay for Identifying Inhibitors of TBK1 and IKKε” (PLoS ONE, 2012).

Tests used:
Format in all cases: biochemical
Details in all cases: compound at 10 µM, after 2 hours (at completion of the assay); LOPAC set
[1] = molecular target: T1, IKKα (Homo sapiens, UniProt O15111); experiment: MCE kinase assay, phosphorylation of FL-1 peptide by IKKα (secondary screen)
T1 construct: purchased Life Technologies (Invitrogen)
T1 sequence (O15111 1-745): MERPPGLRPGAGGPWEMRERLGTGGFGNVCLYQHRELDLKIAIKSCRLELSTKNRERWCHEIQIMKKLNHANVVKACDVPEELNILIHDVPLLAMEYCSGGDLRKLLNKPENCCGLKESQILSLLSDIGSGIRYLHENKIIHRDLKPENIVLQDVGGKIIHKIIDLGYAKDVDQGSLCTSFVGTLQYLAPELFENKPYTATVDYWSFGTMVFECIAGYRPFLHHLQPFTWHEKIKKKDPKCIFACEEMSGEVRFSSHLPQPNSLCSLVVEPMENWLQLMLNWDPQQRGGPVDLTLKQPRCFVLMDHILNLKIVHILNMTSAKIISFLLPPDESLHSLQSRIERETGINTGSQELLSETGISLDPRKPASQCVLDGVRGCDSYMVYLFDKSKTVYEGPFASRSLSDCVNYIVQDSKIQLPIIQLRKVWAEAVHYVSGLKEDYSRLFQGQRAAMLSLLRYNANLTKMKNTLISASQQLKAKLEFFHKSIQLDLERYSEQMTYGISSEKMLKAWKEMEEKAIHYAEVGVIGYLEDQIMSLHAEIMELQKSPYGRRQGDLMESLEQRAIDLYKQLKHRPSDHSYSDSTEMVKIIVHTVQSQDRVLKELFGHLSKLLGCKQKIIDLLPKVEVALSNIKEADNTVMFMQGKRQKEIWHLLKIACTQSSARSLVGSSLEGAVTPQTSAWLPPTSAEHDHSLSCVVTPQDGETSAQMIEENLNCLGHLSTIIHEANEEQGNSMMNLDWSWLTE
Procedure: As IKKβ and IKKα are closely related to TBK1 and IKKε, it was important to determine the specificity of any candidate inhibitors. A secondary screen was therefore performed to evaluate the ability of the top-scoring TBK1 and IKKε inhibitors to inhibit the canonical IKKs. […] Enzyme concentrations were titrated and fixed to 11.5 µM for IKKα and 1.1 µM for IKKβ and the screen was performed as described above for TBK1 and IKKε. […]
Kinase buffer contained 50 mM Tris (pH 7.5), 12 mM MgCl2, 1 mM β-glycerophosphate, 100 µM ATP, and 10 µCi γ-^32P-ATP/reaction. Reactions were incubated at 30°C for 1h. Recombinant GST-TBK1 and GST-TBK1 K38A used in the positional scanning peptide library assay were generated as described above and the assay was performed as described previously, [28]. […]

[2] = molecular target: T2, TBK1 (Homo sapiens, UniProt Q9UHD2); experiment: MCE (microfluidic capillary electrophoresis) kinase assay, phosphorylation of 5-FAM-TBK1-Tide by TBK1
T2 construct: purchased Life Technologies (Invitrogen)
T2 sequence (Q9UHD2 1-729): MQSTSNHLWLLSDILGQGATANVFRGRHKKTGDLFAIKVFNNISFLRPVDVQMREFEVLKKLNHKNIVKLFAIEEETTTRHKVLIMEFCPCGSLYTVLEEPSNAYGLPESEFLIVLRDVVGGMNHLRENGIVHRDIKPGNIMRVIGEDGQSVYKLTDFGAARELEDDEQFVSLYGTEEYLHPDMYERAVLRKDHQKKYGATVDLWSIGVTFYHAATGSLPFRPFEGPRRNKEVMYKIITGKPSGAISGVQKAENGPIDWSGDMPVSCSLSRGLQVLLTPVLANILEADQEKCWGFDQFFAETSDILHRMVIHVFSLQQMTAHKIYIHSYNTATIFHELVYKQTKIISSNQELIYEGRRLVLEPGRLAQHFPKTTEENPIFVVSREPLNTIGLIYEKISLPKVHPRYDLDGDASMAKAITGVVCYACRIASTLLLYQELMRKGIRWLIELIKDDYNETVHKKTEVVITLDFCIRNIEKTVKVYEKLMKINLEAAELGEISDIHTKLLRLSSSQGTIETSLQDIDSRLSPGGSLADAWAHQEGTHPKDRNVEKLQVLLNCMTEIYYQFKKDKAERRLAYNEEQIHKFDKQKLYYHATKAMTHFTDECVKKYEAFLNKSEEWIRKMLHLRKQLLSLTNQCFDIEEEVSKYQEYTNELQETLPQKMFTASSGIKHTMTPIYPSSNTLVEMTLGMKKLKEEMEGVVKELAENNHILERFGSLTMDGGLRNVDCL
From the text: (§1) This validated substrate specificity was then used to develop assays for TBK1 and IKKε which are compatible with HTS using microfluidic capillary electrophoresis (MCE). MCE operates on the principle that small fluorescently-labeled peptide substrates from ∼100 nanoliter sized aliquots of reaction samples are separable in a capillary channel etched in a quartz microfluidic chip ratio when a current is applied, [30]. This technique has been widely adopted as a gold standard assay in the profiling of small molecule inhibitors of kinases and can be tested in a high-throughput fashion, [32]. TBK1-Tide was synthesized with an N-terminal 5– Carboxyfluorescein (5-FAM) dye for use as a substrate. The TBK1-Tide synthesized for HTS (5-FAM-Aha-ADADYASLDWDA-NH2) retained all of the residues critical for phosphorylation by TBK1 and IKKε, but had the -1 and -4 Asp residues changed to Ala in order to decrease the likelihood of Asp isomerization. […] Because of the MCE system’s limits of detection, TBK1-Tide was fixed at a concentration of 1 µM and Km values for substrate were not determined. The enzyme concentrations were then titrated and fixed to 120 nM for TBK1 and 81 nM for IKKε. These values were chosen to give 30% conversion of substrate to product after 2 hours of incubation (data not shown).
(§2) Compounds were screened at a final concentration of 10 µM in 0.1% DMSO. […]

[3] = molecular target: T3, IKKε (Homo sapiens, UniProt Q14164); experiment: MCE kinase assay, phosphorylation of 5-FAM-TBK1-Tide by IKKε
T3 construct: purchased Life Technologies (Invitrogen)
T3 sequence (Q14164 1-716): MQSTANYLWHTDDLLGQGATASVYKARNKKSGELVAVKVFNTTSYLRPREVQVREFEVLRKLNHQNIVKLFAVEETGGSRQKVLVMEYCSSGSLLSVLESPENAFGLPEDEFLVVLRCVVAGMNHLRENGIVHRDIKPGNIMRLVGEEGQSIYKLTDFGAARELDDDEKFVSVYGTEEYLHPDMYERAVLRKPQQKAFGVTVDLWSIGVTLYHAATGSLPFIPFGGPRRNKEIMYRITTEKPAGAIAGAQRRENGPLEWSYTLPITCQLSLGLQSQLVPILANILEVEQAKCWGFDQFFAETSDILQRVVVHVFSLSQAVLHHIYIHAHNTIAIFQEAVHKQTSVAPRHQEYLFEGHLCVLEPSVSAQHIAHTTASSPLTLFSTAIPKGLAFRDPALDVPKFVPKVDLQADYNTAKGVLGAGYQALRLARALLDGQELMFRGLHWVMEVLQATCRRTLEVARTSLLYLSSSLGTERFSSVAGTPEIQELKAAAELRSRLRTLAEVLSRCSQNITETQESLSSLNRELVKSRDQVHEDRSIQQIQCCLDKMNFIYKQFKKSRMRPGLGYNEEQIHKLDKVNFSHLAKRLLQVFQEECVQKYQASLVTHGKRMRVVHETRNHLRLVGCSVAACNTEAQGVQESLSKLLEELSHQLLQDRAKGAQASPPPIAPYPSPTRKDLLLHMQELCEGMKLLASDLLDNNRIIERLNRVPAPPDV
From the text: as §1, §2

O=C1NC(=O)C(c2ccccc2[N+](=O)[O-])=C1Nc1ccc(O)c(Cl)c1 [UNC10100541, SB 415286]
percent inhibition of IKKα [1]: 12.5% | percent inhibition of TBK1 [2]: 91.5% | percent inhibition of IKKε [3]: 86%
